Results are given in words; binding and its absence hold for the method and conditions named. In cells and extracts the contact can be indirect. Some binding calls cover weakened binding; strength is not graded here.
Target: TSPYL5 transfected into A549 cells (human) (UniProt Q86VY4)
Test: co-IP; A549 cells co-transfected with TSPYL5, with TSPY1 overexpressed or knocked down; precipitation with a TSPYL5 antibody, blot for USP7

Protein sequences, listed by entry. Tags and fused reporters are not part of them.
UniProt Q86VY4: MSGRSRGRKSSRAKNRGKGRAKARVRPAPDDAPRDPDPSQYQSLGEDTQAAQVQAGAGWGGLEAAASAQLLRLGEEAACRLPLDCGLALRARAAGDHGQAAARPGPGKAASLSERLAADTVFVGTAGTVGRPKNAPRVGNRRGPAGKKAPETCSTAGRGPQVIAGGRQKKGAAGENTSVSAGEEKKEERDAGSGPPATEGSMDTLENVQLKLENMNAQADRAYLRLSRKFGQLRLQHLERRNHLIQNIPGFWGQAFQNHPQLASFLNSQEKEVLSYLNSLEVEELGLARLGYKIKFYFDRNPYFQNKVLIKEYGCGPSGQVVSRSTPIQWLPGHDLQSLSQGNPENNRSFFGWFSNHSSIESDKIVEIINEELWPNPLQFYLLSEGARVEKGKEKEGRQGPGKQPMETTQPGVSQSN

## USP7 of A549 cells (from UniProt Q93009 1-1102) (enzyme)
  binding: binds

Reference: publication PMC5945610
